# The list shows a part of the results. Further columns of the screen follow, without active or inactive calls. Most of these compounds were active or inconclusive in the main read-out, so they are no random draw. Words in brackets tell the shape of the fitted curve; partial curves, single points and poor fits give uncertain potencies.
# Test: Cell signaling CRE-BLA (Fsk stim)
# Conditions: CHO CRE-bla reporter (cAMP response element driving beta-lactamase), forskolin EC10, beta-lactamase ratio; measured here: 460 nm blue channel
# In short: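 Modulation of forskolin signalling: compounds in titration series added with EC10 NKH 477 to CHO cells carrying a CRE-driven beta-lactamase reporter, 3 h, 37C. CCF4 FRET ratio (460/530 nm, ex 405 nm) gives %activity and AC50.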
row,SMILES,AC50
1,COC(=O)c1cc(C(=O)OC)cc(-n2c(C)cc(C(=O)CC#N)c2C)c1,"10 µM [rising, single point]"
2,c1cnc(Oc2ccc(-c3nnco3)cc2)cn1,"0.0251 µM [falling, full curve, poor fit]"
3,Cn1cccc1-c1nc2ccc(NC(=O)c3ccco3)cc2[nH]1,"6.31 µM [rising, partial curve]"
4,COc1ccc(NS(=O)(=O)c2ccc3oc(Nc4ccc5c(c4)OCCO5)nc3c2)cc1,"0.126 µM [falling, full curve]"
5,CCC(=O)n1nc(-c2ccc(OC)cc2)nc1N,"25.1 µM [rising, single point]"
6,O=C(CSc1nnc(-c2cnccn2)n1Cc1ccco1)c1ccc2ccccc2c1,"25.1 µM [rising, single point]"
7,Cc1cc(NC(=O)CSc2nc(C(C)C)nc3sc(C)c(C)c23)no1,"12.6 µM [rising, partial curve]"
8,COc1ccc(S(=O)(=O)CCC(=O)Nc2c(C)n(C)n(-c3ccccc3)c2=O)cc1,"0.501 µM [falling, full curve]"
9,CCOc1ccc(-c2nnc(N)o2)cc1,"5.01 µM [falling, single point]"
10,COc1ccc(-c2nc(C#N)c(NCc3ccc(C)cc3)o2)cc1OC,"2 µM [rising, full curve]"
11,COc1cccc(C2=NOC(C(=O)Nc3cc(C)nn3-c3ccccc3)C2)c1OC (stereo not drawn),"2.51 µM [rising, full curve]"
12,CCN(CC)CCNC(=O)NC1CCCCC1,"0.126 µM [rising, full curve]"
13,COc1ccccc1-c1cc(C(=O)N2CCc3ccccc3C2)no1,"12.6 µM [falling, single point]"
14,COc1ccc2cc3c(N)c(C(=O)NCc4ccco4)sc3nc2c1,"12.6 µM [rising, partial curve]"
15,CCOC(=O)c1ccccc1NC(=O)CN1CCC(n2nnc3cc(F)ccc32)CC1,"2.51 µM [rising, partial curve]"
16,CCc1nc2ccc(C(=O)NCc3ccco3)cc2nc1CC,"12.6 µM [rising, partial curve]"
17,CCCCn1c(SCC(=O)OCC)nc2c1c(=O)[nH]c(=O)n2C,"5.01 µM [rising, partial curve]"
18,O=C1CCN(S(=O)(=O)c2ccccc2)C2CCCCC12 (stereo not drawn),"12.6 µM [falling, partial curve]"
19,COc1ccc(Nc2nc(N3CCCC3)nc3ccccc23)c(OC)c1,"2.51 µM [rising, full curve]"
20,O=c1c(-c2cccc(F)c2)nc2cncnc2n1Cc1ccccc1,"12.6 µM [rising, single point]"
21,CCc1nc(N)c(C#N)c(-c2cccn2C)c1C,"12.6 µM [rising, partial curve]"
22,COc1ccccc1NC(=O)COc1ccc(/C=N/n2cnnc2)cc1OC,"1 µM [rising, full curve]"
23,C=CCn1c(SCC(=O)OCc2ccccc2)nc2c1c(=O)n(C)c(=O)n2C,"10 µM [rising, partial curve, poor fit]"

row,SMILES,AC50
1,CC(C)c1cccc2nc3c(c([Si](C)(C)C(C)(C)C)c12)Cn1c-3cccc1=O,"15.8 µM [rising, partial curve]"
2,Cn1c(NC(=O)C2c3ccccc3Oc3ccccc32)cc(=O)n(C)c1=O,"0.126 µM [rising, full curve, poor fit]"
3,COc1ccc(Oc2ncc3nc(-c4ccc(F)cc4)c(=O)n(CCC#N)c3n2)cc1,"15.8 µM [rising, partial curve]"
4,CCOc1cc(N2CCOCC2)c(OCC)cc1NC(=O)Cc1ccc(OC)c(OC)c1,"5.01 µM [falling, single point]"
5,Cn1c(=O)[nH]c(=O)c2c1nc(CN1CCOCC1)n2Cc1ccc(F)cc1,"7.94 µM [rising, partial curve]"
6,COc1cccc2c(=O)n(CC(=O)NC3CCCC3)ccc12,"10 µM [rising, single point]"
7,COc1ccc(Cc2nnc(Nc3ccc(C)cc3C)[nH]c2=O)cc1,"0.00631 µM [falling, full curve, poor fit]"
8,CCN(C(=O)COC(=O)c1cc(C)n(-c2ccc(F)cc2)c1C)C1CCS(=O)(=O)C1 (stereo not drawn),"12.6 µM [rising, single point]"
9,CCOC(=O)c1[nH]c2cc3c(cc2c1CCCN1C(=O)c2ccccc2C1=O)OCCO3,"12.6 µM [rising, partial curve]"
10,CCCn1c(C)nc2c(NCCCN(CCO)CCO)nc(C)nc21,"10 µM [rising, partial curve]"
11,O=c1c(-c2ccc(Cl)cc2)nc2cnc(N3CCOCC3)nc2n1Cc1ccc(F)cc1,"12.6 µM [rising, partial curve]"
12,Cn1c(=O)n(Cc2ccccc2)c(=O)c2c1nc1n2CCCN1C1CCCCC1,"1.58 µM [rising, partial curve]"
13,CC1=C(C(=O)OCc2ccccc2)C(c2ccco2)C2=C(CC(C)(C)CC2=O)N1 (stereo not drawn),"25.1 µM [falling, single point]"
14,O=C(Nc1ccc(Cl)cc1F)C1CCN(S(=O)(=O)c2cccnc2)CC1,"3.16 µM [falling, partial curve]"
15,CCOc1ccc(N2C(=O)CC(/C=C3/N(C)c4ccccc4C3(C)C)C2=O)cc1 (stereo not drawn),"0.1 µM [rising, full curve, poor fit]"
16,COC(=O)C1=C(C)NC(=O)NC1c1ccccc1 (stereo not drawn),"3.16 µM [falling, partial curve]"
17,c1cnc(N2CCN(Cc3c[nH]c4ccccc34)CC2)nc1,"25.1 µM [falling, single point]"
18,COc1ccccc1N1CCN(c2cc(=O)n(-c3ccccc3Cl)c(=O)[nH]2)CC1,"5.01 µM [rising, single point]"
19,CCOC(=O)c1c(C)c(C(=O)Nc2ccc(N(C)C)cc2)c(C)n1CC,"10 µM [rising, partial curve]"
20,CC(NC(=O)COc1cc(=O)n(C)c2ccccc12)c1ccc2c(c1)OCCO2 (stereo not drawn),"6.31 µM [rising, partial curve]"
21,COc1ccc(S(=O)(=O)CCC(=O)N2c3ccccc3CC2C)cc1 (stereo not drawn),"0.501 µM [falling, full curve]"
22,CCCc1cc(=O)oc2cc3occ(C)c3cc12,"12.6 µM [rising, partial curve]"
23,Cc1ccc2nc3c(cc(C(=O)NCc4ccccc4)c(=N)n3CCCn3ccnc3)c(=O)n2c1,"15.8 µM [rising, single point]"

# Look-ups from the results shown:
# Under AC50, `CCOc1ccc(N2C(=O)CC(/C=C3/N(C)c4ccccc4C3(C)C)C2=O)cc1` (stereo not drawn) has the entry 0.1 µM [rising, full curve, poor fit]
# Under AC50, `CCOC(=O)c1c(C)c(C(=O)Nc2ccc(N(C)C)cc2)c(C)n1CC` has the entry 10 µM [rising, partial curve]
# Under AC50, `CCN(C(=O)COC(=O)c1cc(C)n(-c2ccc(F)cc2)c1C)C1CCS(=O)(=O)C1` (stereo not drawn) has the entry 12.6 µM [rising, single point]
# Under AC50, `COc1ccc(Oc2ncc3nc(-c4ccc(F)cc4)c(=O)n(CCC#N)c3n2)cc1` has the entry 15.8 µM [rising, partial curve]

# (further entries)

row,SMILES,AC50
1,Cc1nn(CC(O)Cn2cnc3c2c(=O)n(C)c(=O)n3C)c(C)c1Br (stereo not drawn),"0.00398 µM [falling, full curve, poor fit]"
2,Cc1cc(=O)oc2cc(Oc3ncccn3)ccc12,"0.794 µM [rising, full curve]"
3,O=c1c2c3c(sc2n(CCN2CCOCC2)c(=O)n1Cc1ccco1)CCCCC3,"10 µM [rising, partial curve]"
4,CCOC(=O)c1oc2ccc(S(=O)(=O)N3CCOCC3)cc2c1C,"25.1 µM [rising, single point]"
5,CCN(CC)C(=O)C1CCCN(Cc2ccc(N(C)C)cc2)C1 (stereo not drawn),"1.26 µM [falling, partial curve, poor fit]"
6,COCCn1c(=O)c(CCc2ccccc2)nc2cnc(Nc3ccccc3)nc21,"3.16 µM [rising, full curve]"
7,O=C(Nc1nc(-c2ccco2)c(-c2ccco2)s1)C1CC(=O)N(c2ccc3c(c2)OCCO3)C1 (stereo not drawn),"5.01 µM [falling, single point]"
8,CC(=O)c1c[nH]c2ccc(C)cc2c1=O,"3.98 µM [rising, single point]"
9,c1ccc(Nc2cccc3ccccc23)cc1,"10 µM [rising, partial curve]"
10,CN1CCN(S(=O)(=O)c2cccc(S(=O)(=O)c3ccc(Cl)c(Cl)c3)c2)CC1,"0.794 µM [rising, partial curve]"
11,CCCC(=O)Nc1nc2ccc3nc(C)sc3c2s1,"10 µM [rising, single point]"
12,Cn1c(=O)c2c(nc(NCc3ccccc3)n2C)n(C)c1=O,"12.6 µM [rising, single point]"
13,Cc1nnc(SCC(=O)Nc2sccc2C(N)=O)n1Cc1ccccc1,"20 µM [rising, single point]"
14,O=C(O)C1CCCCC1C(=O)NCCCN1CCOCC1 (stereo not drawn),"0.316 µM [falling, partial curve]"
15,CN1CCN(c2ncc3nc(-c4ccc(F)cc4)c(=O)n(Cc4cccs4)c3n2)CC1,"2.51 µM [rising, full curve]"
16,COc1ccc(N(CC(=O)NCCSC(C)(C)C)S(C)(=O)=O)c(OC)c1,"0.631 µM [rising, full curve]"
17,CCn1c(N)c(C(=O)NCc2ccc3c(c2)OCO3)sc1=S,"20 µM [rising, single point]"
18,COc1cc(C2C(C(=O)c3ccco3)=C(O)C(=O)N2c2cc(C)on2)cc(Br)c1O (stereo not drawn),"25.1 µM [falling, single point]"
19,COc1ccc(C(c2sc3ncnn3c2O)N2CC(C)OC(C)C2)cc1OC (stereo not drawn),"10 µM [rising, partial curve]"
20,Cc1cccc(CNc2cc(-c3ccoc3)ncn2)c1,"12.6 µM [rising, partial curve]"
21,COc1ccc2nc(CC(C)(C)CC(=O)O)c[n+]([O-])c2c1,"3.98 µM [rising, partial curve]"
22,C=CCNC(=O)c1ccccc1Cl,"5.01 µM [falling, single point]"
